# According to article doi:10.1101/2022.08.02.502465:
# Sequences of proteins named here, by UniProt entry; tags and fusion partners are left off. A change or cut given only in a name is not applied to a line headed by its entry.
# UniProt P00582: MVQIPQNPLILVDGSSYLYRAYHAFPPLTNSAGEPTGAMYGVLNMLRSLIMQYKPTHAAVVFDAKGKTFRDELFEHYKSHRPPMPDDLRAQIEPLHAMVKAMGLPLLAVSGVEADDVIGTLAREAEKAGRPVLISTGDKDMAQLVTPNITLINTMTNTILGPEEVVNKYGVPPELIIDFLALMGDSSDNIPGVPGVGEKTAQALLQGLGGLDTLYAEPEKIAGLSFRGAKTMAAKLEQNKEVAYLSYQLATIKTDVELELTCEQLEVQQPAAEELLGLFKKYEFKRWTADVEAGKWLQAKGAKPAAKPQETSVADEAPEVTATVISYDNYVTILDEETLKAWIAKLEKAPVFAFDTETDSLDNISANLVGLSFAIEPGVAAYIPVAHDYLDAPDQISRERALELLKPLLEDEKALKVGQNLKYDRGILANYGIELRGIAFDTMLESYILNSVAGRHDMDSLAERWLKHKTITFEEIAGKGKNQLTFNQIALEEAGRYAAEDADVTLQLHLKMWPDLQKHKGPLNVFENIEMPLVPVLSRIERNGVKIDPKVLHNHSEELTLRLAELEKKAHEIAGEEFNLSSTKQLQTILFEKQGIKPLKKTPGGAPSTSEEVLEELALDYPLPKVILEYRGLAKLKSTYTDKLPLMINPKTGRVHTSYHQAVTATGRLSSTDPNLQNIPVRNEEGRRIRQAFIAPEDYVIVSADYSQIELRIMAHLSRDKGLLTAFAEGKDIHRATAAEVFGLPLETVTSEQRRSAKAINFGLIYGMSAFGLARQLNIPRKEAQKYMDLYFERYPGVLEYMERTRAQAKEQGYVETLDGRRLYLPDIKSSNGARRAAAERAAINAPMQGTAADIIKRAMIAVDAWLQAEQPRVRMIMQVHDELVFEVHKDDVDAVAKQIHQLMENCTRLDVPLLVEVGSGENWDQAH
# Construct, isoform or probe ends are uncertain for at least one entry.
# Target: DNA polymerase I (Pol I) (Escherichia coli) (UniProt P00582)
# Assay: BLI
# Conditions: 5 mM Mg2+; residues 1-928
sequence,measurement,value
CGCTCACTGGCCGTCGTTTTACAACGTCGTGACTGGGAAAACCCTGGCGTTACC / GGTAACGCCAGGGTTTTCCCAGTC / ACGACGTTGTAAAACGACGGCCAGTGAGCG [nicked BLI substrate],Kd,12 nM
